# Assay results from PubChem BioAssay (EPA / NIEHS).
# Sequences of proteins named here, by UniProt entry; tags and fusion partners are left off. A change or cut given only in a name is not applied to a line headed by its entry.
# UniProt P10275: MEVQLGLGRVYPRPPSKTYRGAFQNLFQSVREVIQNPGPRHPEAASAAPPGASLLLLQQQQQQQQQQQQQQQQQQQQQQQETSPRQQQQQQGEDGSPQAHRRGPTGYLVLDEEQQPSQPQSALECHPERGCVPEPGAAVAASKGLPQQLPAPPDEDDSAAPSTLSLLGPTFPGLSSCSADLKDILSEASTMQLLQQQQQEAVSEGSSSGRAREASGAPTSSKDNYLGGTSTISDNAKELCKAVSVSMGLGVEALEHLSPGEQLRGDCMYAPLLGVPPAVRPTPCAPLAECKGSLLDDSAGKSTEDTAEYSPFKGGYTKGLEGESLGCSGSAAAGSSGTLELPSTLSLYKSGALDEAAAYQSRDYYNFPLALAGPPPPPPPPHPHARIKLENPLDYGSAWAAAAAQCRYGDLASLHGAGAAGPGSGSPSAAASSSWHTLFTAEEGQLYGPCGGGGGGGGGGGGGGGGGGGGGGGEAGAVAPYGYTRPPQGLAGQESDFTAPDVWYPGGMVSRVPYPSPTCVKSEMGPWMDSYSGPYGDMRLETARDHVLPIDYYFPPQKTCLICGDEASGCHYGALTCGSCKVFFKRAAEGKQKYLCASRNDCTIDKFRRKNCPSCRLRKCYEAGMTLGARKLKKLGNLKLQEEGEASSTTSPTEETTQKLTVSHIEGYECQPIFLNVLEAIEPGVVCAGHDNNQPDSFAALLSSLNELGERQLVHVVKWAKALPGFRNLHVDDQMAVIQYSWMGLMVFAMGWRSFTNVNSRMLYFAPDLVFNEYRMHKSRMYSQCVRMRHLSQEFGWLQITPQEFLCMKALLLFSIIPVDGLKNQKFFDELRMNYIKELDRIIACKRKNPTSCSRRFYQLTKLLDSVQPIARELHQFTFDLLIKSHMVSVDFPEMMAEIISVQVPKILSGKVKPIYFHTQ
# Values joined by “and” are separate entries in the source; they are usually repeats but may differ in a detail not shown here. Equal entries are not always repeated. The shares of active, inactive and inconclusive entries below differ from those in the screen. For part of these data: Potencies of inconclusive entries are doubtful fits and often do not repeat. Active and inactive are the calls of the source. The calls were made as follows: active = hit-call score of the fitted dose curve at least 0.9, where 1 is the maximum; inconclusive = response in the unintended direction; inactive = score below 0.9.
# Tests used:
# [1] = ACEA_ER_AUC_viability: ACEA Biosciences xCELLigence Real-Time Cell Analysis on Estrogen Receptor Agonism for Viability (AID 2283782);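 also: continuous compound exposure with impedance area under curve over 80 h; hit means loss of impedance signal meaning reduced cell growth or viability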
# Outline: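 T-47D; phenol red-free RPMI1640 + 10% CS-FBS; 8 conc., 1:4 serial, max 100 uM final, ≤0.5% DMSO; n = 2; continuous exposure; impedance monitored to 80 h post-dose; AUC vs DMSO.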
# [2] = target: AR (gene 367) (UniProt P10275); test: ACEA_AR_agonist_80hr: ACEA Biosciences xCELLigence Real-Time Cell Analysis on Androgen Receptor Agonism for Proliferation (AID 2283783);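 also: hits increase impedance growth signal above DMSO baseline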
# Outline: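 Androgen-driven proliferation in 22Rv1 cells is tracked as electrical impedance, taken 80 h after continuous exposure to compound (eight concentrations, 1:4 steps, maximum 100 uM final). Activity is fitted in the positive direction with DMSO as baseline.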
# [3] = STM_H9_NormalizedViability: Cytotoxicity Assessment at 120 hours in the Stemina devTOX quickPredict H9 human embryonic stem cell (hESC)-based Assay (AID 2283784)
# Outline: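 Pluripotent H9 hESCs were exposed, with chemical and media replaced every 24 h. Viability was read by CellTiter-Fluor fluorescence, background-corrected and normalized to the 0.1% DMSO neutral control per plate. Loss of signal was fitted.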
compound,measurement,setting,value
COC(F)(C(F)F)C(F)(F)F (stereo not given),AC50,[1],inconclusive: 18.2 µM
COC(Cc1ccccc1)OC,AC50,[1],active: 67 µM
CCOC(=O)C(C#N)=C(c1ccccc1)c1ccccc1,outcome,[1],inactive
CO[Si](CCCOCC1CO1)(OC)OC (stereo not given),AC50,[1],active: 76.8 µM
c1ccc2cc3ccccc3cc2c1,AC50,[1],inconclusive: 50 µM
C=COCCOCCOC=C,AC50,[1],inconclusive: 27.7 µM
CC(C)CCCC(C)CCO (stereo not given),outcome,[1],inactive
C[Si]1(C)O[Si](C)(C)O[Si](C)(C)O[Si](C)(C)O1,AC50,[1],inconclusive: 50 µM
CCOc1ccc(NC(N)=O)cc1,AC50,[1],inconclusive: 0.0274 µM
FC(F)(F)C(F)(F)C(F)(F)C(F)(F)CCI,AC50,[1],inconclusive: 0.00686 µM
C=C(C)C(=O)OCC(F)(F)C(F)(F)C(F)(F)C(F)(F)C(F)(F)C(F)(F)C(F)(F)F,outcome,[1],inactive
CC(C)Nc1nc(N)nc(Cl)n1,AC50,[1],inconclusive: 50 µM
CCCCC/C=C/C=C/C=O,AC50,[1],active: 81.1 µM
CCO[Si](CCC(F)(F)C(F)(F)C(F)(F)C(F)(F)C(F)(F)C(F)(F)F)(OCC)OCC,AC50,[1],inconclusive: 12.5 µM
O=C(O)C(F)(F)C(F)(F)C(F)(F)C(F)(F)C(=O)O,AC50,[1],inconclusive: 2.11 µM
FC(F)(F)C(F)(F)C(F)(F)C(F)(F)C(F)(F)C(F)(F)I,AC50,[1],inconclusive: 0.146 µM
COC(=O)c1ccc([N+](=O)[O-])cc1,AC50,[1],active: 80.2 µM
C=C1CC/C=C(\C)CC[C@@H]2[C@@H]1CC2(C)C,outcome,[1],inactive
O=C(Cl)C(F)(F)C(F)(F)C(F)(F)C(F)(F)C(F)(F)C(F)(F)C(F)(F)C(F)(F)F,AC50,[1],active: 127 µM
CC(=O)c1c(C)c([N+](=O)[O-])c(C(C)(C)C)c([N+](=O)[O-])c1C,outcome,[1],inactive
Nc1ccc2cc(S(=O)(=O)O)cc(O)c2c1N=Nc1ccccc1C(F)(F)F,AC50,[1],inconclusive: 0.0282 µM
c1cc(-c2ccncc2)ccn1,AC50,[1],inconclusive: 72.9 µM
COC(C)(C)CCO,AC50,[1],inconclusive: 0.0736 µM
Cc1ccc(S(=O)(=O)O)c(C)c1,AC50,[1],inconclusive: 9.92 µM and inconclusive: 50 µM
O=C(Cl)C(F)(F)C(F)(F)C(F)(F)C(=O)Cl,outcome,[1],inactive
C=CCOC(=O)CC(C)C,outcome,[1],inactive
CC(=O)CCc1ccccc1,AC50,[1],inconclusive: 7.42 µM
CCCC(C)C(=O)OCC (stereo not given),AC50,[1],inconclusive: 0.0326 µM
CCOC(=O)CC(C)O (stereo not given),outcome,[1],inactive
CCCOC(=O)CC,outcome,[1],inactive
CCN(CC)C(=O)c1cccc(C)c1,AC50,[1],inconclusive: 0.0233 µM
O=C(Cl)C(F)(F)C(F)(F)C(F)(F)C(F)(F)C(F)(F)C(F)(F)F,outcome,[1],inactive
CCCCCCCCCCCCCO,AC50,[1],inconclusive: 94.5 µM
CC(=O)OC/C=C(/C)CCC=C(C)C,AC50,[1],inconclusive: 50 µM
CN(C)CCCN1c2ccccc2Sc2ccc(Cl)cc21,AC50,[1],active: 13.1 µM
CC(=O)c1ccccc1N,AC50,[1],inconclusive: 0.0652 µM
NC1CCCCC1N (stereo not given),AC50,[1],active: 77.1 µM
N#Cc1cscn1,outcome,[1],inactive
FC(F)(F)C(F)(F)C(F)(F)CC1CO1 (stereo not given),AC50,[1],inconclusive: 17.5 µM
C=C(C)[C@H]1CC=C(C)C(=O)C1,outcome,[1],inactive
CC(CCl)OP(=O)(OC(C)CCl)OC(C)CCl (stereo not given),AC50,[1],inconclusive: 0.105 µM
CCOC(=O)c1ccc(N)cc1,outcome,[1],inactive
CC(=O)c1ccc(C)cc1,outcome,[1],inactive
Clc1ccc(C(c2ccccc2Cl)C(Cl)Cl)cc1 (stereo not given),AC50,[1],active: 29.2 µM
CCOC(C=C(C)CCC=C(C)C)OCC,AC50,[1],active: 11.3 µM
CC(C)(C)c1cc(Cc2cc(C(C)(C)C)c(O)c(C(C)(C)C)c2)cc(C(C)(C)C)c1O,AC50,[1],inconclusive: 0.00256 µM
COc1cccc(OC)c1C(=O)O,outcome,[1],inactive
CCCCCCCCSCCO,AC50,[1],active: 70.5 µM
C[N+](C)(C)CCCNS(=O)(=O)C(F)(F)C(F)(F)C(F)(F)C(F)(F)C(F)(F)C(F)(F)C(F)(F)C(F)(F)F,AC50,[1],active: 111 µM
[Cl][Sc]([Cl])[Cl],outcome,[1],inactive
O=C(O)CCCCC(=O)O,AC50,[1],inconclusive: 50 µM
Cc1ccc(C(=O)O)o1,AC50,[1],inconclusive: 25.3 µM
COC(=O)CSc1cc(N=c2sc(=O)n3n2CCCC3)c(F)cc1Cl,outcome,[1],inactive
same,outcome,[2],inactive
COC(=O)c1cccc(C(=O)OC)c1,AC50,[1],inconclusive: 0.0181 µM
same,AC50,[2],inconclusive: 0.9 µM
CN(C(=O)C(F)(F)C(F)(F)C(F)(F)F)[Si](C)(C)C,outcome,[1],inactive
CCCCOC(=O)CC(CC(=O)OCCCC)(OC(C)=O)C(=O)OCCCC,AC50,[1],inconclusive: 0.0389 µM
CC(=O)Nc1ccc(O)cc1,AC50,[1],inconclusive: 50 µM
same,AC50,[2],inconclusive: 50 µM
COc1ccc2c(c1)c(CC(=O)O)c(C)n2C(=O)c1ccc(Cl)cc1,AC50,[1],inconclusive: 50 µM
same,AC50,[2],inconclusive: 50 µM
same,AC50,[3],active: 78.1 µM
CCOC(=O)C(C)Oc1ccc(Oc2nc3ccc(Cl)cc3o2)cc1 (stereo not given),AC50,[1],inconclusive: 0.0465 µM
same,AC50,[2],inconclusive: 50 µM
CC1(C)C(=O)N(Br)C(=O)N1Br,AC50,[1],inconclusive: 50 µM
same,AC50,[2],inconclusive: 50 µM
CCCCCCCCC(CO)CCCCCC (stereo not given),AC50,[1],active: 33.9 µM
O=C(O)C(F)(F)C(F)(F)C(F)F,outcome,[1],inactive
OCCC(F)(F)C(F)(F)C(F)(F)C(F)(F)C(F)(F)C(F)(F)C(F)(F)C(F)(F)F,AC50,[1],inconclusive: 75 µM
same,AC50,[2],inconclusive: 0.0109 µM
CCOC(=O)[C@@H](C)Oc1ccc(Oc2nc3ccc(Cl)cc3o2)cc1,AC50,[1],inconclusive: 0.0586 µM
same,AC50,[2],inconclusive: 0.72 µM
CC(=O)O[C@@H]1CC2CCC1(C)C2(C)C (stereo not given in full),outcome,[1],inactive
same,AC50,[2],inconclusive: 0.772 µM

# Shown bar-delimited: entries from further up.
compound | measurement | setting | value
CC(=O)c1ccc(C)cc1 | outcome | [1] | inactive
Clc1ccc(C(c2ccccc2Cl)C(Cl)Cl)cc1 (stereo not given) | AC50 | [1] | active: 29.2 µM
CCOC(C=C(C)CCC=C(C)C)OCC | AC50 | [1] | active: 11.3 µM
